Results published in patent US20140235552A1 (priority 2013, published 2014).
For at least one compound, name, drawing or mass did not settle the structure.

Assays:
[1] = test system: Type 1 Diabetes Patients; experiment: Planned treatment of type 1 diabetes patients with a PPI and Cyclosporine (Examples 1, 6); assay type: in vivo, human; conditions: PPI orally in two divided dosages with Cyclosporine initially 7.5 mg/kg/day
[2] = test system: Type 2 Diabetes; experiment: Planned treatment of type 2 diabetes patients with a PPI (Examples 2-4, 7-9); assay type: in vivo, human; conditions: PPI orally twice daily

COc1ccnc(C[S+]([O-])c2nc3ccc(OC(F)F)cc3[nH]2)c1OC (stereo not shown) [Pantoprazole]
outcome in type 1 diabetes patients [1]: insulin independence
diabetes medication requirements in type 2 diabetes [2]: need to diminish dosages of other diabetes medications
outcome in insulin-requiring type 2 diabetes [2]: insulin independence
blood glucose as measured by fasting glucose and hemoglobin A1C levels ([2]; drug naive type 2 diabetes): normalization of blood glucose
